In the supplement of paper PMC10849652:
The list shows a part of the results.

Protein sequences, listed by entry. Tags and fused reporters are not part of them. Lines headed by an entry give the natural chain unless they say otherwise; changes in a name come on top.
UniProt P53990, whole entry, looked up: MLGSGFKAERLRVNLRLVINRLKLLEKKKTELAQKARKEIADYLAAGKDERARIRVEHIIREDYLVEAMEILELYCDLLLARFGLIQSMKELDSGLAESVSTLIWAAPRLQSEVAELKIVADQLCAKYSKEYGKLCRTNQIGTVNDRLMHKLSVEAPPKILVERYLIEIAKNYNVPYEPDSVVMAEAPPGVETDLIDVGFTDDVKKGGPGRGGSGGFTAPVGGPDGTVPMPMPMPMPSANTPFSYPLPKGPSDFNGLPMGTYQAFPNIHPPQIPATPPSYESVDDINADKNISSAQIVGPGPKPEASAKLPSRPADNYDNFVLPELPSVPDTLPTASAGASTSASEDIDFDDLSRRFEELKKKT
UniProt Q9Y2K7: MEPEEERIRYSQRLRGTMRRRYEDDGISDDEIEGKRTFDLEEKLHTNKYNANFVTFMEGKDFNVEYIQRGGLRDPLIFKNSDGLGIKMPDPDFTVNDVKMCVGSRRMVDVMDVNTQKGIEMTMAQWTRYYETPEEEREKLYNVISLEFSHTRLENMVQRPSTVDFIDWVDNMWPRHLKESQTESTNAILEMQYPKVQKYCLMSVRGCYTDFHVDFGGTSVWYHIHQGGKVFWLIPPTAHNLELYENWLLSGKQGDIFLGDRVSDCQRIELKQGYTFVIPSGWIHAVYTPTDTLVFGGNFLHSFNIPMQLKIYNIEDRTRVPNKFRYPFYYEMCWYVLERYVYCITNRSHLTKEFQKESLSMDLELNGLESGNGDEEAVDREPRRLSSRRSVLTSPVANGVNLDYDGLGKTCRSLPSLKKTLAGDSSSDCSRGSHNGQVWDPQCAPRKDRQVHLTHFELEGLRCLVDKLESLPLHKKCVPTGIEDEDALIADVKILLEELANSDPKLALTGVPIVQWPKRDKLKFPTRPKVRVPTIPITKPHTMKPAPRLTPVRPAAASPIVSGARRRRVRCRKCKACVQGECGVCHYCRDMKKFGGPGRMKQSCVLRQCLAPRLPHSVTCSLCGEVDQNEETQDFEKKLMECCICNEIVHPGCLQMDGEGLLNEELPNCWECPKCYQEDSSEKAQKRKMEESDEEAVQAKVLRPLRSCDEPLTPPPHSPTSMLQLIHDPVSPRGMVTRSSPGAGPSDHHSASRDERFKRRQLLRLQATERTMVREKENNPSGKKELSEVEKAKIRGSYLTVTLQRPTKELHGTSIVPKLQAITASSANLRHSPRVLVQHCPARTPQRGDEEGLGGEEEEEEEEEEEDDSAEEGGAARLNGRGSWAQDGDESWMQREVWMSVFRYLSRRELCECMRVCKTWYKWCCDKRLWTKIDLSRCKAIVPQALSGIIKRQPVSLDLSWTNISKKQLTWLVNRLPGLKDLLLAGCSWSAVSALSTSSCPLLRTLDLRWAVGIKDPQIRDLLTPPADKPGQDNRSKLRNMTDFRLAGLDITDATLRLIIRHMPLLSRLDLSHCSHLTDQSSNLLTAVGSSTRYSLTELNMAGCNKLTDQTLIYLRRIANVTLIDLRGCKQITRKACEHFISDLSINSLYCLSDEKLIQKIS
UniProt P05161, whole entry, looked up: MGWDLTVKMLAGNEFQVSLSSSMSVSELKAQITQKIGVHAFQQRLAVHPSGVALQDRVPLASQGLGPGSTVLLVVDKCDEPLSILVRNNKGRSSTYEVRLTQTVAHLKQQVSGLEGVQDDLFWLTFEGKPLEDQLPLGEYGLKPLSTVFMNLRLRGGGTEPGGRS
UniProt Q6DN90: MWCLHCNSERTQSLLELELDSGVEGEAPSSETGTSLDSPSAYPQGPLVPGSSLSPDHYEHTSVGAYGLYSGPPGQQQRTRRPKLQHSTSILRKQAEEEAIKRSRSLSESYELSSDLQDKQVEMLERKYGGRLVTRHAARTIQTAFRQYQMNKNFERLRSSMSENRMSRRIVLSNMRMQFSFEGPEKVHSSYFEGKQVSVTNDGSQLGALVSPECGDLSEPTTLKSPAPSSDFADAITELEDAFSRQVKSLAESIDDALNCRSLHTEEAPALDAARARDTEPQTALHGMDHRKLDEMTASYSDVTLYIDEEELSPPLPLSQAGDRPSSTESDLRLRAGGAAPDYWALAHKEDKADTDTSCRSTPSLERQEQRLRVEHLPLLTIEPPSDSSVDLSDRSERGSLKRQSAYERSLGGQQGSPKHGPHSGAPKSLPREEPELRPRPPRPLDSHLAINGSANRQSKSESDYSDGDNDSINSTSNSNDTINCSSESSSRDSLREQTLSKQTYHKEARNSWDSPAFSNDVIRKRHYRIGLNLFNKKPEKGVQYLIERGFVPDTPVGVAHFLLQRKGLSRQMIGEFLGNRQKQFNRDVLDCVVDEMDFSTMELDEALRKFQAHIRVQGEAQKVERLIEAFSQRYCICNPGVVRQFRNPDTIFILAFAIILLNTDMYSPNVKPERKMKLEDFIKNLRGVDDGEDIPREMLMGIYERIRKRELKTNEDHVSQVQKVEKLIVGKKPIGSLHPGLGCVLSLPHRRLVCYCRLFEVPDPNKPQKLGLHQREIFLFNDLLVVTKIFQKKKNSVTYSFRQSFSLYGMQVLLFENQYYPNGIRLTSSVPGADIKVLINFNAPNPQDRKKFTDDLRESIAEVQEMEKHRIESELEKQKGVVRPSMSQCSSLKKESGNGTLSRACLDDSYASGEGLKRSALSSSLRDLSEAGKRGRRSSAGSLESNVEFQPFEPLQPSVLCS
UniProt Q9NPH2: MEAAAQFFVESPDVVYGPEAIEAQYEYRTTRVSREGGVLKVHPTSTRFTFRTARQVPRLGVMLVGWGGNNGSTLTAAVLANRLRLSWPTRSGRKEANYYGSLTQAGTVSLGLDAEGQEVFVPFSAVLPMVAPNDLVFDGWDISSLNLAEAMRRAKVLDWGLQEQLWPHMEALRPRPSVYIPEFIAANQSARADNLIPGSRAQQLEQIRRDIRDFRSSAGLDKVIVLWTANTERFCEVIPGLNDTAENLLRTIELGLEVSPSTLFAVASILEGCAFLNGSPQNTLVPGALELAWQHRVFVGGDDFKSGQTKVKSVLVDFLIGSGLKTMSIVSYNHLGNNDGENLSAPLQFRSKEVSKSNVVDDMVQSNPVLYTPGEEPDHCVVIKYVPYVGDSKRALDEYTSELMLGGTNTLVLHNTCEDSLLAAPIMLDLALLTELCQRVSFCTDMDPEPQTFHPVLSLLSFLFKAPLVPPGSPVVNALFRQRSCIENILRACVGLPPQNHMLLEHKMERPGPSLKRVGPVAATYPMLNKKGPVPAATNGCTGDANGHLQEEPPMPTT
UniProt O95251, whole entry, looked up: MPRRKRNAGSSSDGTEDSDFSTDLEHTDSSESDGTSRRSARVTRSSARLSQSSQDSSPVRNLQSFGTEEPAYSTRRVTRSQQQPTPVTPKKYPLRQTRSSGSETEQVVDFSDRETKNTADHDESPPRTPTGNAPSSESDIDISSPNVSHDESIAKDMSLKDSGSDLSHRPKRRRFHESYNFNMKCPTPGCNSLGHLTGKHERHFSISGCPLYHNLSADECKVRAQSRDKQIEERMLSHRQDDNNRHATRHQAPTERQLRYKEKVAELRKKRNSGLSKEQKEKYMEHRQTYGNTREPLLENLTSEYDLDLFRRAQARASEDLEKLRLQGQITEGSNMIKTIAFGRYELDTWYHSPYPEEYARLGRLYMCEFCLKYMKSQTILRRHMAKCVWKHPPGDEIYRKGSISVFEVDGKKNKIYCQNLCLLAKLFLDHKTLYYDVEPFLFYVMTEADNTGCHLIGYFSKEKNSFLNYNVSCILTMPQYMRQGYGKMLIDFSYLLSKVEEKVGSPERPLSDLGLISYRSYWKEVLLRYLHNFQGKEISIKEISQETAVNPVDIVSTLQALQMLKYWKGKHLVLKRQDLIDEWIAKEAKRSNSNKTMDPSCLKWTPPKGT
UniProt Q9H9L3: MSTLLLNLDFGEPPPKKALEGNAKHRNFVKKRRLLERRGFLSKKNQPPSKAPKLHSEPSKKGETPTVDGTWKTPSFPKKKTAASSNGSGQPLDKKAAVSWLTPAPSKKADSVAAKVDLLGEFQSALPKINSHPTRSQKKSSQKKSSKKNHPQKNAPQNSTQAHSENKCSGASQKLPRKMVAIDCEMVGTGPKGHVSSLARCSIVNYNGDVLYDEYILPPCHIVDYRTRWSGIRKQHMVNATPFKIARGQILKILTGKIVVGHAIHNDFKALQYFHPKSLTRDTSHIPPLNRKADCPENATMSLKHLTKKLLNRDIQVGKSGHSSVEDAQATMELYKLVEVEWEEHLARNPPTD
UniProt Q96MP8: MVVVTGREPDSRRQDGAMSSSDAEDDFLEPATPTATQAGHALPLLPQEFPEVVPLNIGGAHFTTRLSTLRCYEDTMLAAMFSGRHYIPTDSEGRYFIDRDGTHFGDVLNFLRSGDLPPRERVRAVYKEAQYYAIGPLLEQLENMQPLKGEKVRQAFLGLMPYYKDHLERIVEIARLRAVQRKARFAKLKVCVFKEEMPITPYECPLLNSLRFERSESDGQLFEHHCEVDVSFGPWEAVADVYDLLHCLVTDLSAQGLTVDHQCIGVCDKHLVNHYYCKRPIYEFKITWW
UniProt Q8WZ19: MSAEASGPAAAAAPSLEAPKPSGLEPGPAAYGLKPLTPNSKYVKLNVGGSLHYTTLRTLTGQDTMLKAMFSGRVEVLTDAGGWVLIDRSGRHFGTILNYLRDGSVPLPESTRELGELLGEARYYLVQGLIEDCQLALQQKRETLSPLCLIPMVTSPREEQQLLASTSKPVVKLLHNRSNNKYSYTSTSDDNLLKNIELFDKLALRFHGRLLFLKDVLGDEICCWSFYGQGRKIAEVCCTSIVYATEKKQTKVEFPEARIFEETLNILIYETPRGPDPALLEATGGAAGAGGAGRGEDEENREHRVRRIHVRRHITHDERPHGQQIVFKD
UniProt O43731: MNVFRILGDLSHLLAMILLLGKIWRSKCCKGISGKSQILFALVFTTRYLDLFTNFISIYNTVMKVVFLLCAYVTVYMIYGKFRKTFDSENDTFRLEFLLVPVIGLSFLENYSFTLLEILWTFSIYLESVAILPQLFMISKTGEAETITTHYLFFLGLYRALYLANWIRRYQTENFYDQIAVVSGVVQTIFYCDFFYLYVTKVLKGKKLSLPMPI
UniProt Q13352: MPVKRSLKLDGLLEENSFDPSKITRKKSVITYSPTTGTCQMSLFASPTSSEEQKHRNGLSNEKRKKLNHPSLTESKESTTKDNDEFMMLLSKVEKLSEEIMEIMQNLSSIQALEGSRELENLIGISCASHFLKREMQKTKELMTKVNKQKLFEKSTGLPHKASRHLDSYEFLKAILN
UniProt Q9UKP3: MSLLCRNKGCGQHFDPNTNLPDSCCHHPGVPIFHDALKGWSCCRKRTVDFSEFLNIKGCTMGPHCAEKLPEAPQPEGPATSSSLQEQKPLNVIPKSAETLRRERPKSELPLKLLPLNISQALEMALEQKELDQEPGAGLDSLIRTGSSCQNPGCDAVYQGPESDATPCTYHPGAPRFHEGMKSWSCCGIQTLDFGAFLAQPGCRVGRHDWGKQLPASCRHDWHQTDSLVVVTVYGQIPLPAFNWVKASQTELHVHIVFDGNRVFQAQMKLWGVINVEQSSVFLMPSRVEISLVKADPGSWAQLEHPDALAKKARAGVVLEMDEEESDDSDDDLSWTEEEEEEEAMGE
UniProt Q9NQX7: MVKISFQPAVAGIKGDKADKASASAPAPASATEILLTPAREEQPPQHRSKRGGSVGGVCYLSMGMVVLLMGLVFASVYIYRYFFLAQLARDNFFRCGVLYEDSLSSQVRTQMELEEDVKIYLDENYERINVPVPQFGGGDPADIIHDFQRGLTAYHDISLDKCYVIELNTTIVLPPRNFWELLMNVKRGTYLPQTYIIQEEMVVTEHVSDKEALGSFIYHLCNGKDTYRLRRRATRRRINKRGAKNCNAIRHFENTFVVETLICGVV
UniProt P17275: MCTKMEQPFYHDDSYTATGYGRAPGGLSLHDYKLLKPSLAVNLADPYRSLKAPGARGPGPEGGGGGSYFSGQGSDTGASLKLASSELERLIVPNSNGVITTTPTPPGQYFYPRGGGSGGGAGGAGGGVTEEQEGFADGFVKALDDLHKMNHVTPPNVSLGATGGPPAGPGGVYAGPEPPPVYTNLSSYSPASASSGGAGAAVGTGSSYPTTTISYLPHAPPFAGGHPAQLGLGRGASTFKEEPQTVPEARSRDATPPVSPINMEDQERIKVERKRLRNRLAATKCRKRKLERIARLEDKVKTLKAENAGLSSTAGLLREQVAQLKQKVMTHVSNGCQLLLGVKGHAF
UniProt Q9H079: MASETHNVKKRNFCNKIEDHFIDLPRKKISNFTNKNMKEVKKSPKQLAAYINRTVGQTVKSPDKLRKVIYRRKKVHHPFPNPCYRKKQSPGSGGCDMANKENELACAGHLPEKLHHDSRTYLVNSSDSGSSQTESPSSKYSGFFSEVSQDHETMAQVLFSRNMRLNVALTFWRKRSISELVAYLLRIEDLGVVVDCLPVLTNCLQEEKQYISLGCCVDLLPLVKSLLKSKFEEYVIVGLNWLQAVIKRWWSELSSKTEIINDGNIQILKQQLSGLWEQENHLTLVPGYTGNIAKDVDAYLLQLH

Tests used:
Assay in all cases: log2 fold change, soluble protein after heating vs DMSO (PISA); higher = thermal stabilisation; K562 lysate, 10 uM; active = over 0.2 and 3.5 SD of the protein, either way, in both replicates (recomputed)
[1] = compound: C1=CC=C(C=C1)[C@H](COC2=CC3=C(C=C2)NC(=O)N3)NC(=O)C4=CC=CN(C4=O)CC5=CC(=C(C=C5)F)F
Outline: (§1)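 Dounce homogenisation of K562 pellets in PBS pH 7.4 with 1 mM MgCl2 produced a crude extract, used at 1 mg/mL protein. Exposure to 10 μM compound lasted 30 min, and aliquots were then heated for 3 min across 48°C-58°C, pooled and brought to 0.5% NP-40 at 4°C. The supernatant after 21,000xg for 90 min was quantified by TMTpro 16plex LC-MS/MS with channel sums equalised. Duplicate values are given as log-two fold change in thermal stability relative to solvent controls.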

[2] = compound: CC1=C(SC2=C1C(=N[C@H](C3=NN=C(N32)C)CC(=O)N)C4=CC=C(C=C4)Cl)C
Outline: as §1

[3] = compound: CC1=C2C(=CC=C1)N=C(N(C2=O)C3=CC=CC=C3C)CN4C=NC5=C(N=CN=C54)N
Outline: as §1

[4] = compound: Cc1sc2c(c1C)C(c1ccc(Cl)cc1)=N[C@@H](CC(=O)OC(C)(C)C)c1nnc(C)n1-2
Outline: as §1

[5] = compound: c1ccc([C@@H]2C[C@H]2NC2CCNCC2)cc1
Outline: as §1

Measured: log2 fold change

IRAK4 (UniProt Q9NWZ3)
inactive: [1] -0.02 | [2] -0.014 | [3] 0.022 | [4] -0.08 | [5] -0.024

IST1 (UniProt P53990)
inactive: [1] -0.008 | [2] 0.009 | [3] 0.03 | [4] 0.01 | [5] 0.044

ITFG2 (UniProt Q969R8)
inactive: [1] -0.035 | [2] 0.008 | [3] -0.057 | [4] 0.075 | [5] -0.069

KATNB1 (UniProt Q9BVA0)
inactive: [1] -0.001 | [2] -0.041 | [3] 0.017 | [4] 0.024 | [5] -0.005

KDM2A (UniProt Q9Y2K7)
inactive: [1] -0.044 | [2] 0.023 | [3] 0.018 | [4] 0.033 | [5] 0.088

IWS1 (UniProt Q96ST2)
inactive: [1] 0.019 | [2] -0.003 | [3] 0.009 | [4] -0.007 | [5] -0.003

IQGAP3 (UniProt Q86VI3)
inactive: [1] -0.011 | [2] 0.038 | [3] -0.208 | [4] -0.03 | [5] 0.099

KBTBD8 (UniProt Q8NFY9)
inactive: [1] -0.03 | [2] 0.03 | [3] 0.074 | [4] -0.045 | [5] -0.021

ISG15 (UniProt P05161)
inactive: [1] 0.007 | [2] 0.04 | [3] -0.02 | [4] -0.098 | [5] -0.032

IPO13 (UniProt O94829)
inactive: [1] -0.018 | [2] -0.002 | [3] 0.03 | [4] 0.022 | [5] -0.021

IQSEC1 (UniProt Q6DN90)
inactive: [1] -0.018 | [2] 0.057 | [3] -0.011 | [4] 0.068 | [5] 0.032

IRF2BP2 (UniProt Q7Z5L9)
inactive: [1] 0.023 | [2] -0.018 | [3] 0 | [4] 0.023 | [5] -0.009

IPO9 (UniProt Q96P70)
inactive: [1] -0.007 | [2] 0 | [3] -0.002 | [4] -0.014 | [5] -0.044

JUND (UniProt P17535)
inactive: [1] -0.008 | [2] 0.043 | [3] -0.028 | [4] 0.03 | [5] -0.12

KCTD3 (UniProt Q9Y597)
inactive: [1] 0.04 | [2] 0.074 | [3] 0.009 | [4] -0.026 | [5] -0.042

ISYNA1 (UniProt Q9NPH2)
inactive: [1] 0.039 | [2] -0.017 | [3] -0.011 | [4] -0.009 | [5] -0.032

KBTBD4 isoform 2 (UniProt Q9NVX7)
inactive: [1] -0.014 | [2] -0.003 | [3] -0.106 | [4] -0.025 | [5] 0.016

KAT7 (UniProt O95251)
inactive: [1] -0.039 | [2] 0.001 | [3] -0.065 | [4] -0.058 | [5] -0.104

ITPA (UniProt Q9BY32)
inactive: [1] -0.016 | [2] 0.011 | [3] -0.031 | [4] -0.027 | [5] -0.135

ITPR2 (UniProt Q14571)
inactive: [4] -0.171

ITGA2B (UniProt P08514)
inactive: [3] -0.05 | [5] -0.125

IPP (UniProt Q9Y573)
inactive: [3] -0.009 | [4] -0.099 | [5] 0.02

NA (UniProt J3KR12)
inactive: [3] 0.131 | [5] -0.482

JMY (UniProt Q8N9B5)
inactive: [1] -0.142 | [2] -0.078 | [4] -0.02 | [5] 0.13

ISG20L2 (UniProt Q9H9L3)
inactive: [3] 0.145 | [4] -0.005 | [5] 0.047

INTU (UniProt Q9ULD6)
inactive: [3] 0.085

IRS2 (UniProt Q9Y4H2)
inactive: [1] -0.091 | [2] 0.246 | [4] -0.129 | [5] -0.354

JPT2 isoform 2 (UniProt Q9H910)
inactive: [1] -0.045 | [2] 0.052 | [4] -0.055 | [5] -0.01

KCTD7 (UniProt Q96MP8)
inactive: [3] -0.069 | [4] -0.159

ITPRID2 (UniProt P28290)
inactive: [1] -0.156 | [2] 0.077 | [5] 0.089

KAT2A (UniProt Q92830)
inactive: [4] 0.105 | [5] -0.011

KCTD13 (UniProt Q8WZ19)
inactive: [1] 0.3 | [2] -0.161 | [4] 0.008

KANSL1 (UniProt Q7Z3B3)
inactive: [4] 0.159 | [5] 0

INTS6L (UniProt Q5JSJ4)
inactive: [4] 0.073 | [5] 0.086

KAZN isoform 3 (UniProt Q674X7)
inactive: [1] 0.043 | [2] -0.035 | [5] 0.132

ISL2 (UniProt Q96A47)
inactive: [1] 0.038 | [2] 0.058 | [4] -0.063 | [5] 0.207

KDELR3 (UniProt O43731)
inactive: [3] -0.12 | [4] 0.087 | [5] -0.01

ITFG2 (UniProt H0YGR0)
inactive: [3] -0.136 | [4] 0.07

Fetched one by one from above (2):
KCTD7 (UniProt Q96MP8)
inactive: [3] -0.069 | [4] -0.159

KCTD3 (UniProt Q9Y597)
inactive: [1] 0.04 | [2] 0.074 | [3] 0.009 | [4] -0.026 | [5] -0.042

Next part.

JAK2 (UniProt O60674)
inactive: [3] 0.004 | [4] -0.005 | [5] 0.011

ITPRIP (UniProt Q8IWB1)
inactive: [4] 0.054

ITGB3BP isoform 5 (UniProt Q13352)
inactive: [5] -0.014

Quoted from the results shown (18 entries):
NA (UniProt J3KR12)
inactive: [3] 0.131 | [5] -0.482

JMY (UniProt Q8N9B5)
inactive: [1] -0.142 | [2] -0.078 | [4] -0.02 | [5] 0.13

ISG20L2 (UniProt Q9H9L3)
inactive: [3] 0.145 | [4] -0.005 | [5] 0.047

INTU (UniProt Q9ULD6)
inactive: [3] 0.085

IRS2 (UniProt Q9Y4H2)
inactive: [1] -0.091 | [2] 0.246 | [4] -0.129 | [5] -0.354

JPT2 isoform 2 (UniProt Q9H910)
inactive: [1] -0.045 | [2] 0.052 | [4] -0.055 | [5] -0.01

KCTD7 (UniProt Q96MP8)
inactive: [3] -0.069 | [4] -0.159

ITPRID2 (UniProt P28290)
inactive: [1] -0.156 | [2] 0.077 | [5] 0.089

KAT2A (UniProt Q92830)
inactive: [4] 0.105 | [5] -0.011

KCTD13 (UniProt Q8WZ19)
inactive: [1] 0.3 | [2] -0.161 | [4] 0.008

KANSL1 (UniProt Q7Z3B3)
inactive: [4] 0.159 | [5] 0

INTS6L (UniProt Q5JSJ4)
inactive: [4] 0.073 | [5] 0.086

KAZN isoform 3 (UniProt Q674X7)
inactive: [1] 0.043 | [2] -0.035 | [5] 0.132

ISL2 (UniProt Q96A47)
inactive: [1] 0.038 | [2] 0.058 | [4] -0.063 | [5] 0.207

KDELR3 (UniProt O43731)
inactive: [3] -0.12 | [4] 0.087 | [5] -0.01

ITFG2 (UniProt H0YGR0)
inactive: [3] -0.136 | [4] 0.07

JAK2 (UniProt O60674)
inactive: [3] 0.004 | [4] -0.005 | [5] 0.011

ITPRIP (UniProt Q8IWB1)
inactive: [4] 0.054

Going on with the list.

IRF9 (UniProt Q00978)
inactive: [4] 0.069

KBTBD6 (UniProt Q86V97)
inactive: [5] -0.056

KALRN (UniProt O60229)
inactive: [5] 0.015

JAG2 (UniProt Q9Y219)
inactive: [1] 0.213 | [2] -0.226 | [4] 0.106 | [5] 0.038

IPO5 (UniProt H0Y3V4)
inactive: [3] -0.185 | [4] -0.023 | [5] 0.093

JADE2 (UniProt Q9NQC1)
inactive: [4] -0.149 | [5] -0.104

KANK2 isoform 2 (UniProt Q63ZY3)
inactive: [3] 0.267 | [4] -0.266 | [5] -0.092

ITGB1BP2 (UniProt Q9UKP3)
inactive: [3] 0.116 | [4] 0.083 | [5] -0.029

KCNN4 (UniProt O15554)
inactive: [5] 0.031

ITM2C (UniProt Q9NQX7)
inactive: [1] -0.326 | [2] 0.019 | [4] -0.044

IST1 isoform 2 (UniProt P53990)
inactive: [3] -0.137 | [4] -0.119

JUN (UniProt P05412)
inactive: [4] -0.025

JMJD7 (UniProt P0C870)
inactive: [1] -0.15 | [2] -0.003 | [4] 0.227 | [5] -0.039

JUNB (UniProt P17275)
inactive: [4] 0.219 | [5] 0.004

KATNBL1 (UniProt Q9H079)
inactive: [3] -0.111 | [4] -0.012 | [5] -0.071

KCNH2 (UniProt Q12809)
inactive: [5] 0.164
